The results in this text go back to publication PMC4253978, “Characterization of the Anopheles gambiae octopamine receptor and discovery of potential agonists and antagonists using a combined computational-experimental approach” (Malaria Journal, 2014).

By UniProt entry, the sequences of proteins in these tests, tags left out.
UniProt F5HJT6, entry or part of it: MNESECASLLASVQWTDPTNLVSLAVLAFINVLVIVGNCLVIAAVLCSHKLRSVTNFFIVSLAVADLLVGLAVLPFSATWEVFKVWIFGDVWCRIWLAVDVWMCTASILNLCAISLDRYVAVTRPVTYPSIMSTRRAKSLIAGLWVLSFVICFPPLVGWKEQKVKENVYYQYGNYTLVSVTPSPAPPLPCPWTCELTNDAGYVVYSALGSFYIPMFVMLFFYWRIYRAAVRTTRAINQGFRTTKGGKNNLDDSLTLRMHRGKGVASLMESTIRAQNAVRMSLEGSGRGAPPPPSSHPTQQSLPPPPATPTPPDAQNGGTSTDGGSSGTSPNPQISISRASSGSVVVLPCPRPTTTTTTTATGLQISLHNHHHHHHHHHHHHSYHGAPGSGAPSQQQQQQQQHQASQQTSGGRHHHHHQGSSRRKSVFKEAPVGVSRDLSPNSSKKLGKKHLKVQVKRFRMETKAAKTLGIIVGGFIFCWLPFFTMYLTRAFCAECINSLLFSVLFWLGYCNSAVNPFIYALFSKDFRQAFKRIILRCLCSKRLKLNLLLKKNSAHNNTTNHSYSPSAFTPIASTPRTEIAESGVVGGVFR

For the assay, the target named is AgOAR45B (Anopheles gambiae, UniProt F5HJT6). It is filed as cell-based. Particulars: read-out: IC 50 (antagonist), in the presence of 1 μM octopamine. The procedure: GloResponse™CRE-luc2P HEK293 reporter cell line (Promega) were maintained as adherent culture at 37°C, 5% CO2 in DMEM (Invitrogen) supplemented with 10% fetal calf serum (Atlanta), and […] hygromycin B. Transfection of cells was carried out using the Amaxa Nucleofector kit per the manufacturer’s instructions. […] Stable lines were created by applying […] G418 for three weeks. Stable clones of AgOAR45B expressing HEK293 reporter cells were created through two rounds of limiting dilution cloning.
Intracellular cAMP increase was monitored through a CRE-luc reporter construct in HEK293 cells (Promega). Stable cell lines were plated at a density of 4×10^4 cells per well in white 96-well assay plates (Corning, Cat. #3917). Cells were immediately treated with the various compounds, and returned to the incubator for four hours before being assayed. cAMP was quantified through luciferase production using the Dual-Glo luciferase assay kit (Promega) following the manufacturer’s instructions. Luciferase units were normalized to the cell number using the internal Rluc construct in the pF9A expression plasmid.

With `CN1CCC(=C2c3ccccc3C=Cc3ccccc32)CC1` [Cyproheptadine, cyproheptadine], the IC50 is 14 µM.
